Hit rate of the full screen: of about 410,000 compounds, about 18,000 (4.4%) were called active. The inconclusive results got no clear call from the source; some entries with a clear call stand among them for comparison. No stated cut-off is given here; in the data, active means activity change below about -60%; inconclusive means no clear call, values can overlap the other calls; inactive means above about -39%.
Experiment: qHTS Assay for inhibitors of the human cytomegalovirus (HCMV)
Conditions: HFF cells, HCMV-luciferase reporter, 72 h; at 57.5 µM; active compounds read low
In short: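 Compounds were evaluated in HFFs infected with an HCMV luciferase reporter virus (MOI 1 PFU/cell). Luciferase in lysates collected 72 h post infection served as the replication measure.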
On the % scale 0 is the no-effect control and ±100 the full control effect.

Row | SMILES | activity change, negative = inhibition
1 | Cc1ccc(S(=O)(=O)CCC(=O)NCc2ccco2)cc1 | inconclusive: -44.2%
2 | CCN(CC)S(=O)(=O)c1ccc(N2CCCC2)c(NC(=O)C2=NN(c3ccccc3)C(=O)CC2)c1 | inconclusive: -48.7%
3 | CN(CC(=O)Nc1ccc(Cl)cc1)C1=NS(=O)(=O)c2ccccc21 | inconclusive: -42.5%
4 | CC#CCOC(=O)c1c(C)nc2sc3c(c2c1N)CCC(O)C3 (stereo not given) | inconclusive: -53.5%
5 | O=S(=O)(CCN1C=CC(C(F)(F)F)=NCC1)c1ccc(F)cc1 | inactive: 31%
6 | CN(CC(=O)NCC1CCCCC1)S(=O)(=O)c1ccc(Cl)cc1 | inconclusive: -48.9%
7 | CCOC(=O)C(C)Sc1ncnc2c1c(-c1ccccc1)cn2-c1ccc(OC)cc1 (stereo not given) | inconclusive: -42.9%
8 | Cc1oc(-c2ccccc2)nc1CNC(=O)Nc1ccccc1 | inactive: -17.7%
9 | CC1CCC(NC(=O)CN(C)S(=O)(=O)c2cccc3cccnc23)CC1 (stereo not given) | inactive: -31.8%
10 | CCOCCCNC(=O)CCc1nnc2ccc(N3CCN(c4cccc(OC)c4)CC3)nn12 | inconclusive: -50.8%
11 | Clc1cccc(Cc2c(-c3ccco3)nc3c4ccccc4ccn23)c1 | inconclusive: -54.5%
12 | CCc1cccc(CC)c1NC1=NS(=O)(=O)c2ccccc21 | inactive: 12.3%
13 | CC(C)OCCCN1C(=O)c2[nH]nc(-c3ccccc3O)c2C1c1ccc(OCc2ccccc2)cc1 (stereo not given) | active: -98.4%
14 | Cc1onc(-c2ccccc2)c1C(=O)Nc1sc2c(c1C#N)CCC(C)C2 (stereo not given) | inconclusive: -44.4%
15 | Cc1c(C(=O)c2ccc(N(C)C)cc2)c2ccccn2c1CCC#N | inconclusive: -57.1%
16 | Cc1ccc(NC(=O)c2cn(CCC#N)nc2-c2ccc3c(c2)OCCO3)c([N+](=O)[O-])c1 | inconclusive: -45.8%
17 | CSc1nnc(-c2ccc(S(=O)(=O)N3CCOCC3)cc2)n1C | inactive: -8.21%
18 | O=C(/C=C/c1cccc([N+](=O)[O-])c1)Nc1cc(C(=O)O)cc(C(=O)O)c1 | inactive: 5.27%
19 | CCCNC(=O)c1ccc2c(=O)c(O)c(C)[nH]c2c1 | inconclusive: -52%
20 | Cc1cc(NC(=O)C(C)SCC(=O)Nc2cc(C(F)(F)F)ccc2N2CCOCC2)no1 (stereo not given) | inactive: -1.75%
21 | Cc1ccc([C@H]2C[C@H](O)[C@@H](n3cc(COC(=O)c4ccccc4)nn3)CN2Cc2cccs2)cc1 | inactive: 9.28%
22 | CN(CCOc1ccccc1)C(=O)C1CCN(C(=O)c2ccc(F)cc2)CC1 | inconclusive: -45.4%
23 | COc1ccc2nc(SCC(=O)NC3CCCCC3C)[nH]c2c1 (stereo not given) | inconclusive: -47.9%

Arranged by molar mass (smallest number first): part of the list above
Row | SMILES | activity change, negative = inhibition
19 | CCCNC(=O)c1ccc2c(=O)c(O)c(C)[nH]c2c1 | inconclusive: -52%
5 | O=S(=O)(CCN1C=CC(C(F)(F)F)=NCC1)c1ccc(F)cc1 | inactive: 31%
14 | Cc1onc(-c2ccccc2)c1C(=O)Nc1sc2c(c1C#N)CCC(C)C2 (stereo not given) | inconclusive: -44.4%

Further entries:

Row | SMILES | activity change, negative = inhibition
24 | O=C(Nc1ccc(C(=O)N2CCOCC2)cc1)Nc1cccc(C(F)(F)F)c1 | inconclusive: -53%
25 | O=C(Nc1cccc(Cl)c1)Nc1nc(-c2ccccc2)cs1 | inconclusive: -59.5%
26 | COC(=O)c1ccc(Nc2cc(C)nc3ccc(C)cc23)cc1 | inactive: 3.25%
27 | CCOc1ccccc1NC(=O)CN1CCC(NC(=O)Nc2ccccc2)CC1 | inconclusive: -46.4%
28 | COc1ccc(C)cc1NC(=O)CCS(=O)(=O)c1ccc2c(c1)CC(=O)N2C | inactive: -2.58%
29 | COc1cccc2c1c(NC(=O)c1cc(C)on1)nn2C | inconclusive: -46.8%
30 | CC(=O)c1sc(NC(=O)COc2ccc(Br)cc2)nc1C | inconclusive: -41%
31 | CC(C(=O)NC1CCCCCC1)c1ccc([N+](=O)[O-])cc1 (stereo not given) | inconclusive: -47.5%
32 | COC(=O)c1c(NC(=O)CN2CCN(S(=O)(=O)c3ccccc3[N+](=O)[O-])CC2)sc2c1CCC(C)C2 (stereo not given) | active: -60.3%
33 | O=C(O)Cc1ccc(Oc2ncc(C(F)(F)F)cc2Cl)cc1 | inactive: -23.4%
34 | COc1ccc2nc(SCC(=O)Nc3ccc(S(=O)(=O)N4CCCC4)cc3)c(C#N)cc2c1 | inconclusive: -52.2%
35 | CC1CC(C)CN(C(=O)c2ccc(N3CC4CC(C3)c3cccc(=O)n3C4)c([N+](=O)[O-])c2)C1 (stereo not given) | inactive: -2.66%
36 | CC1=C(C(=O)OCC2CCCCC2)C(c2c(F)cccc2Cl)CC(=O)N1 (stereo not given) | inconclusive: -41.2%
37 | CN(C)C1=C(C#N)C(c2ccccc2)=NP(N(C)C)(N(C)C)=N1 | inconclusive: -48%
38 | CC1CCN(C(=O)c2cc(-c3ccc(Cl)cc3)on2)CC1 | inactive: 73.6%
39 | CC1CCc2sc(C(=O)NC3CCN(Cc4ccccc4)CC3)cc2C1 (stereo not given) | inconclusive: -42.1%
40 | CCCCCc1ccc(S(=O)(=O)NCCc2ccncc2)cc1 | inconclusive: -54.9%
41 | Cn1cc(/C=N/n2cnc3scc(-c4ccccc4)c3c2=O)c2ccccc21 | inactive: -17.3%
42 | CCCCc1n[nH]c2c1C(=O)CC(C)(C)C2 | active: -84.7%
43 | CC(C)(C)NC(=O)COC(=O)c1ccccc1Oc1ccccc1 | inactive: -29.4%
44 | O=C(c1ccc(S(=O)(=O)Nc2ccccc2)cc1)N1CCCCCCC1 | inconclusive: -40.3%
45 | CCCCN(C(=O)c1cc(Cl)nc2ccccc12)c1c(N)n(CCCC)c(=O)[nH]c1=O | inactive: -18%
